In paper PMC3909270, “The basic keratin 10-binding domain of the virulence-associated pneumococcal serine-rich protein PsrP adopts a novel MSCRAMM fold” (Open Biology, 2014):
No constants are given. Whether binding was seen depends on the method and setting. Some binding calls cover weakened binding; strength is not graded here.

The chains behind the UniProt entries cited, without tags or fusion partners. Residues count along the entry.
UniProt A0A0H2URK1, residues 186-384: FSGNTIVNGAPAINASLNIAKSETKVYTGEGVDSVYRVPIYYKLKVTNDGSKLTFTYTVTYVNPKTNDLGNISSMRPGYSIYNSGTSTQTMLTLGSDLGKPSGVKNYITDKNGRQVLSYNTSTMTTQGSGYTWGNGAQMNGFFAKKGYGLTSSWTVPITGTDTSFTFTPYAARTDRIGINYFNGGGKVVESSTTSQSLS

Columns and labels:
[1] = molecular target: KRT10 head-rod-1A domain (KRT10-HRD) (human) (UniProt P13645); assay: ELISA; KRT10 constructs coated on Nunc C96 plates (coating adjusted to KRT10-TRD at about 5 µg/ml), 2% BSA block; STII-BR_(187–385) 23 nM to 3 µM in PBS; detected with Strep-Tactin HRP; four-parameter logistic fit; both purified
[2] = molecular target: full-length keratin-10 (KRT10-FL) (human) (UniProt P13645); assay: pull-down; KRT10-FL immobilised on Ni-NTA magnetic agarose beads; 100 µl of 25 µM STII-BR_(187–385) incubated 1 h in 20 mM HEPES, 50 mM NaCl, 10% glycerol, pH 7.5; washes with 300 mM NaCl, 20 mM imidazole, 0.2% Triton X-100; SDS-PAGE of beads; both purified
[3] = molecular target: T1, KRT10 tail-rod-2B domain (KRT10-TRD) (human) (UniProt P13645); assay: ELISA; KRT10-TRD coated; WT-BR_(187–385) and mutated variants at a single concentration of 1 µM; detected with Strep-Tactin HRP; normalised intensities; both purified
T1 sequence: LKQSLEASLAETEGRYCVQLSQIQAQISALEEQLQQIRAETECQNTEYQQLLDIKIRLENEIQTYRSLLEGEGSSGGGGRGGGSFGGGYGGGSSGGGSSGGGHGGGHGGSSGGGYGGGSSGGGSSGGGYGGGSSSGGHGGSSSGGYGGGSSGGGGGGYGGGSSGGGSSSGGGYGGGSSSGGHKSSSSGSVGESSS

Strep-Tag-II BR_(187–385) (KRT10-binding domain of the pneumococcal serine-rich repeat protein PsrP) (from UniProt A0A0H2URK1 186-384) (domain or fragment)
binding [1]: binds weakly | binding [2]: binds | binding [3]: binds
